Data on three molecules can be found in publication doi:10.1101/2021.06.07.21258350.

By UniProt entry, the sequences of proteins in these tests, tags left out. Residues count along the entry.
UniProt P0DTC4: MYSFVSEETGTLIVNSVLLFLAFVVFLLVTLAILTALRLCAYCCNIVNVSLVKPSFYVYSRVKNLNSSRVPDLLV
UniProt P11226, residues 21-248: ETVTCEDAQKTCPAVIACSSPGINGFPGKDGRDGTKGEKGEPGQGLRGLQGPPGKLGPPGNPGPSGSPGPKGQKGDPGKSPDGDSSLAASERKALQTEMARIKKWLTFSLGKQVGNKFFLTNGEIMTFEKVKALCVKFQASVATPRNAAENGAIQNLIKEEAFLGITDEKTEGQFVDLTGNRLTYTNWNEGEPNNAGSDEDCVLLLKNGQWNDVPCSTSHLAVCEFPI
UniProt P02743, residues 20-223: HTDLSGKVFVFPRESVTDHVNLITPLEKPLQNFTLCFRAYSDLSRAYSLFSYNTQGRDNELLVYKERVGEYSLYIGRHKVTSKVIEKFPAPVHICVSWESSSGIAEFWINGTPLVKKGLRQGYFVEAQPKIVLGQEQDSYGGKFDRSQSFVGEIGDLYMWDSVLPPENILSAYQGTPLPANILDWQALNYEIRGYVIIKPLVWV
UniProt P03522, residues 17-511: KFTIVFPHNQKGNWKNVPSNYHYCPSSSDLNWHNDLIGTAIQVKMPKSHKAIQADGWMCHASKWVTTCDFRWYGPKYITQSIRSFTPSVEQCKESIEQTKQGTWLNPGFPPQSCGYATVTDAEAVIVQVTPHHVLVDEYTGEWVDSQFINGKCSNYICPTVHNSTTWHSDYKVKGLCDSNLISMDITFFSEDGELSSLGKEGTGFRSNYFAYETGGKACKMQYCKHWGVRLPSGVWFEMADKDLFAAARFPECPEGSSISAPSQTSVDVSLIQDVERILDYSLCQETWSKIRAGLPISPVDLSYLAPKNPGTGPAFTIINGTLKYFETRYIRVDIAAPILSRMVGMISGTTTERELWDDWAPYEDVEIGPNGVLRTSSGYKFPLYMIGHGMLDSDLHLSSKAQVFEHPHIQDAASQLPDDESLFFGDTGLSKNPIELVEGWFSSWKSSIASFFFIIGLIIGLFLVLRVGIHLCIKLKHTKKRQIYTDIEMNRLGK

In assay [1] the target is Recombinant His Tag SARS-CoV-2 Envelope protein (SARS-CoV-2) (UniProt P0DTC4). The assay can be described thus: ELISA.
In assay [2] the target is Recombinant human Mannose Binding Lectin (MBL) (human) (UniProt P11226). The assay can be described thus: capture of pseudotyped lentivirus on coated plates, p24 ELISA after lysis. Background: ELISA stands for enzyme-linked immunosorbent assay.

No constants are given. Whether binding was seen depends on the method and setting.

On to “Serum amyloid P component (SAP), purified (from UniProt P02743 20-223)”, for which, in assay [1], the binding result was “no binding (tested: SAP 4 µg/mL (32 nM))”.

In the case of “VSV-g glycoprotein pseudotyped on a lentivirus vector (from UniProt P03522 17-511)”, the binding result in assay [2] was “no binding (tested: 1 µg/mL)”.

B1: C-reactive protein (CRP), purified (protein, UniProt P02741 19-224)
chain: QTDMSRKAFVFPKESDTSYVSLKAPLTKPLKAFTVCLHFYTELSSTRGYSIFSYATKRQDNEILIFWSKDIGYSFTVGGSEILFEVPEVTVAPVHICTSWESASGIVEFWVDGKPRVRKSLKKGYTVGAEASIILGQEQDSFGGNFEGSQSLVGDIGNVNMWDFVLSPDEINTIYLGGPFSPNVLNWRALKYEVQGEVFTKPQLWP
With B1, in assay [1], the binding result is reported as “no binding (tested: CRP 3 µg/mL (25 nM))”.
